# According to PubChem BioAssay AID2685 (National Center for Advancing Translational Sciences (NCATS), 2010):
# This is one part of the list. The main result of the screen is listed elsewhere. These columns were measured beside it and carry no call. The list favours compounds with an active or inconclusive main result. Words in brackets tell the shape of the fitted curve; partial curves, single points and poor fits give uncertain potencies.
# Test: qHTS Assay for Lipid Storage Modulators in Drosophila S3 Cells;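 on cell number change: cells counted by Cell Tracker Red CMTPX staining in the red channel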
# Settings: BODIPY lipid droplet fluorescence, 18-24 h; for cell number change: measured here: cell count max response, cells fed with added oleic acid
# Summary of the method: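 Drosophila S3 cells got compounds at several concentrations plus oleic acid (400 uM solution). Laser-scanning cytometry with 488 nm excitation read lipid droplets at 500-530 nm and cells at 575-640 nm. Percent activity was relative to 20 uM Triacsin C.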
# [1] = measured here: cell number channel AC50, cells fed with added oleic acid
# [2] = measured here: lipid fluorescence (Fed channel) AC50, cells fed with added oleic acid
smiles,measurement,setting,value
COc1ccc(NS(=O)(=O)c2cc(N)ccc2N2CCCCC2)cc1,cell number change,,-33%
same,AC50,[1],"16.4 µM [falling, single point]"
CCc1nnc(NC(=O)C(=O)NCCOC(=O)c2ccccc2)s1,cell number change,,35.7%
same,AC50,[1],"0.103 µM [rising, full curve, poor fit]"
CC(OC(=O)CCN=C1NS(=O)(=O)c2ccccc21)C(=O)Nc1ccc(S(N)(=O)=O)cc1 (stereo unspecified),cell number change,,10.4%
same,AC50,[1],"0.651 µM [falling, full curve]"
same,AC50,[2],"0.82 µM [falling, full curve]"
CSc1cccc2sc(NC(=O)C3=COCCO3)nc12,cell number change,,24.5%
CCCCN(C(=O)COC(=O)CSc1cc(C)c2ccccc2n1)c1c(N)n(CCC)c(=O)[nH]c1=O,cell number change,,36.3%
same,AC50,[2],"0.13 µM [rising, partial curve, poor fit]"
COCCCNC(=O)c1ccc(Cn2c(=O)c3ccccc3n(Cc3ccccc3C)c2=O)cc1,cell number change,,-35.6%
same,AC50,[1],"4.11 µM [rising, single point]"
Cc1ccccc1NC(=O)CCCCC(=O)Nc1ccccc1C,cell number change,,9.38%
same,AC50,[2],"7.31 µM [rising, partial curve]"
Cc1cccc(-n2c(Cc3cc(=O)[nH]c(=O)[nH]3)nnc2SCC(=O)N2CCCCC2)c1,cell number change,,14%
same,AC50,[2],"0.259 µM [falling, full curve]"
Cc1cc(NC(=O)COC(=O)C2CC(=O)N(c3ccc(Cl)cc3)C2)no1 (stereo unspecified),cell number change,,3.42%
CC(O)CNCCCCOc1ccc(OCc2ccccc2)cc1 (stereo unspecified),cell number change,,-6.46%
same,AC50,[2],"5.17 µM [falling, single point]"
COc1ccccc1N1CCN(C(=O)CCc2c[nH]c3ccccc23)CC1,AC50,[2],"0.116 µM [falling, partial curve, poor fit]"
O=C(OCn1ncc(Cl)c(Cl)c1=O)c1ccc(F)cc1,cell number change,,-44.5%
same,AC50,[1],"16.4 µM [falling, partial curve]"
same,AC50,[2],"14.6 µM [falling, partial curve]"
COC(=O)c1ccc2c(=O)n(Cc3ccco3)c(SCC(=O)Nc3cc(C)on3)nc2c1,cell number change,,-8.27%
same,AC50,[2],"14.1 µM [falling, single point]"
CCCn1nc(C(=O)OCC(=O)NC(C)c2ccccc2)c2ccccc2c1=O (stereo unspecified),AC50,[2],"2.91 µM [rising, single point]"
C=CCN1/C(=C(\C#N)C2=NS(=O)(=O)c3ccccc32)N(C)c2ccccc21,cell number change,,6.67%
same,AC50,[1],"0.731 µM [rising, full curve]"
same,AC50,[2],"6.51 µM [rising, partial curve]"
COc1cc(OC)c(OC)cc1CCC(C)NCCC(c1ccccc1)c1ccccc1 (stereo unspecified),cell number change,,-55.1%
same,AC50,[1],"23.1 µM [falling, partial curve, poor fit]"
same,AC50,[2],"14.6 µM [falling, partial curve]"
Cc1ccc(-c2[nH]ncc2C(=O)c2ccccc2C)c(O)c1,cell number change,,-13.5%
same,AC50,[1],"0.058 µM [rising, full curve, poor fit]"
same,AC50,[2],"6.51 µM [rising, single point]"
O=C(c1nc2ccccn2c1CN1CCN(c2ccccc2O)CC1)N1CCCC1,cell number change,,1.13%
same,AC50,[2],"2.91 µM [rising, single point]"
O=C(C1CCCN(S(=O)(=O)c2cccc3nonc23)C1)N1CCN(c2ccccc2Cl)CC1 (stereo unspecified),cell number change,,-6.58%
same,AC50,[2],"1.46 µM [rising, partial curve]"
CCOC(=O)c1ccc(Cl)c(NC(=O)c2ccc(-c3ccccc3)cc2)c1,cell number change,,-17.7%
same,AC50,[2],"29.1 µM [falling, single point]"
O=C1CCCN1CCCNc1ccc2nnc(CCC(=O)N3CCN(c4ccccc4)CC3)n2n1,cell number change,,11.3%
Cc1ccc(Nc2cc(C)nc(N3CCOCC3)n2)cc1,cell number change,,-3.65%
CCC(=O)N1CCN(c2ccccc2NC(=O)COc2cccc(C)c2)CC1,cell number change,,-37.4%
same,AC50,[1],"20.6 µM [falling, partial curve, poor fit]"
same,AC50,[2],"0.92 µM [rising, full curve, poor fit]"
O=C(CSC1=NS(=O)(=O)c2ccccc2N1)Nc1cccc(F)c1,cell number change,,-16.6%
same,AC50,[1],"0.00731 µM [falling, full curve, poor fit]"
same,AC50,[2],"3.26 µM [falling, full curve]"
COC(=O)c1ccccc1NC(=O)CSc1nnnn1-c1ccc(C)cc1C,AC50,[1],"3.26 µM [rising, partial curve]"
same,AC50,[2],"20.6 µM [rising, partial curve]"
CN1/C(=C\C=C(/C#N)C(=O)Nc2ccc(Cl)cc2)C(C)(C)c2ccccc21,AC50,[1],"0.0651 µM [rising, full curve, poor fit]"
O=C(Nc1ccc(Cl)cc1)c1cc(S(=O)(=O)N2CCOCC2)cs1,cell number change,,-13.1%
O=C(c1ccco1)N1CCCN(Cc2cn[nH]c2-c2ccc(-c3ccccc3)cc2)CC1,cell number change,,-46.6%
same,AC50,[1],"29.1 µM [falling, single point]"
CC(=O)c1ccc(NC(=O)C(NC(=O)c2ccccc2)=C(C)C)cc1,cell number change,,23.1%
same,AC50,[2],"29.1 µM [rising, single point]"
COc1ccc(CNC(=O)Cc2ccc(OC)c(S(=O)(=O)N3CCOCC3)c2)cc1,cell number change,,30.4%
same,AC50,[1],"0.517 µM [rising, full curve, poor fit]"
O=c1nc(-c2ccccc2)n(-c2ccccc2)[nH]1,cell number change,,2.46%
same,AC50,[1],"2.06 µM [falling, partial curve, poor fit]"
same,AC50,[2],"0.92 µM [falling, partial curve, poor fit]"
COC(=O)c1cccc(C(=O)Nc2cnc3ccccc3c2)n1,cell number change,,3.48%
same,AC50,[2],"0.291 µM [rising, full curve]"
COc1ccc(C(=O)C2CCN(C(=O)Nc3ccccc3C)CC2)cc1,cell number change,,13.4%
same,AC50,[2],"29.1 µM [rising, single point]"
C/C(=N\NC(=O)c1cc(O)cc(O)c1)c1ccc(NC(=O)Cc2ccccc2)cc1,AC50,[2],"0.651 µM [rising, full curve, poor fit]"
CCn1c(CNc2ccc(F)cc2)nnc1SCC(=O)N1CCCc2ccccc21,cell number change,,-13.8%
same,AC50,[2],"6.51 µM [falling, single point]"
CCOC(=O)NC(=O)COC(=O)CNC(=O)c1cccc(OC)c1,cell number change,,19.1%
same,AC50,[2],"2.59 µM [falling, partial curve, poor fit]"
Cc1ccc(C)c2[nH]c(=O)c(CCNC(=O)C(C)C)cc12,AC50,[2],"0.13 µM [rising, full curve, poor fit]"
CN(CCCCCCN(C)Cc1ccccc1O)Cc1ccccc1O,cell number change,,-11.1%
same,AC50,[2],"0.00461 µM [falling, full curve, poor fit]"
CCOC(=O)C1(Cc2ccccc2C)CCCN(C(=O)CCc2cccnc2)C1 (stereo unspecified),cell number change,,9.94%
Cc1ccc(/C=N/NC(=S)NC(C)C)o1,AC50,[2],"0.58 µM [falling, single point]"
O=C1c2ccccc2S(=O)(=O)N1CC1CC(c2ccccc2Cl)=NO1 (stereo unspecified),AC50,[2],"29.1 µM [rising, single point]"
OC(COCc1ccc2c(c1)OCO2)CN1CCN(Cc2ccccc2)CC1 (stereo unspecified),cell number change,,72%
same,AC50,[1],"23.1 µM [rising, single point]"
Cc1cc(C)nc(NS(=O)(=O)c2ccc(NC(=O)c3cc4c(=O)n5cccc(C)c5nc4n3C)cc2)n1,cell number change,,2.67%
Nc1n[nH]c(N)c1N=Nc1ccc2c(c1)OCO2,cell number change,,-2.02%
same,AC50,[2],"0.00411 µM [falling, full curve, poor fit]"
O=C(CSc1ncn[nH]1)NCc1ccccc1Cl,cell number change,,-8.56%
O=C(/C=C/c1ccccc1O)c1ccco1,cell number change,,-10.8%
same,AC50,[2],"6.51 µM [falling, single point]"
Cc1ccc(/C=N/NC(=O)c2c(C)nc3ccc(Br)cn23)cc1,cell number change,,8.03%
same,AC50,[2],"29.1 µM [rising, single point]"
COc1ccc(S(=O)(=O)N2CCOCC2)cc1NC(=O)CNC(=O)c1cccs1,cell number change,,32%
same,AC50,[1],"32.6 µM [rising, single point]"
same,AC50,[2],"0.461 µM [rising, full curve]"
COc1ccc([N+](=O)[O-])cc1NC(=O)C(C)OC(=O)c1cccnc1Cl (stereo unspecified),AC50,[2],"0.00411 µM [rising, full curve, poor fit]"
Cn1cc(P(=S)(N2CCOCC2)N2CCOCC2)cc1P(=S)(N1CCOCC1)N1CCOCC1,cell number change,,10.1%
c1csc(CNCCCN2CCOCC2)c1,cell number change,,-86.2%
same,AC50,[1],"29.1 µM [falling, single point]"
N=c1n(CC(=O)c2cccs2)c2ccccc2n1Cc1ccccc1,cell number change,,-18.2%
same,AC50,[2],"32.6 µM [falling, single point]"
COc1ccc(C(=O)Nc2ccncc2)c(OC)c1,cell number change,,-6.45%
same,AC50,[2],"9.2 µM [falling, partial curve]"
COC(=O)Cn1ncc(N2CC(C)OC(C)C2)c(Cl)c1=O (stereo unspecified),cell number change,,3.97%
CCOC(=O)C1CCN(C(=O)Cc2c(C(=O)O)n(C)c3ccccc23)CC1,cell number change,,1.97%
CCc1ccc(OC(=O)Nc2ccccc2)cc1,cell number change,,1.64%
same,AC50,[2],"2.91 µM [rising, partial curve, poor fit]"
CN(Cc1ccccc1)C(=O)c1[nH]cnc1C(=O)Nc1ccccc1,cell number change,,-35.4%
same,AC50,[1],"9.2 µM [falling, single point]"
Cc1nn(CC(=O)NC2CCS(=O)(=O)C2)c(C)c1S(=O)(=O)N(C)C (stereo unspecified),cell number change,,-0.722%
same,AC50,[2],"29.1 µM [rising, single point]"
O=C1/C(=C/c2ccc([N+](=O)[O-])cc2)C=C(c2ccccc2)N1c1ccc(O)cc1,cell number change,,2.34%
Cc1ccccc1C(=O)NC1CCN(Cc2nnnn2CCc2ccccc2)CC1,cell number change,,21%
same,AC50,[2],"18.4 µM [rising, single point]"
Cc1cnc(C(=O)Nc2cc(F)ccc2C)cn1,cell number change,,16.2%
same,AC50,[2],"16.4 µM [rising, partial curve, poor fit]"

# Random excerpt: three records from the list, in no set order.
smiles,measurement,setting,value
O=C(Nc1ccc(Cl)cc1)c1cc(S(=O)(=O)N2CCOCC2)cs1,cell number change,,-13.1%
COc1ccc(S(=O)(=O)N2CCOCC2)cc1NC(=O)CNC(=O)c1cccs1,AC50,[1],"32.6 µM [rising, single point]"
OC(COCc1ccc2c(c1)OCO2)CN1CCN(Cc2ccccc2)CC1 (stereo unspecified),AC50,[1],"23.1 µM [rising, single point]"

# An excerpt from further up, for reference:
smiles,measurement,setting,value
COc1ccc(C(=O)C2CCN(C(=O)Nc3ccccc3C)CC2)cc1,AC50,[2],"29.1 µM [rising, single point]"
C/C(=N\NC(=O)c1cc(O)cc(O)c1)c1ccc(NC(=O)Cc2ccccc2)cc1,AC50,[2],"0.651 µM [rising, full curve, poor fit]"
